Results on 5 molecules are retold here after patent US20060018902A1 (published 2006).

Test [1] concerns the target T1, soluble EpoR (EposR) (human) (UniProt P19235).
T1 sequence (looked up): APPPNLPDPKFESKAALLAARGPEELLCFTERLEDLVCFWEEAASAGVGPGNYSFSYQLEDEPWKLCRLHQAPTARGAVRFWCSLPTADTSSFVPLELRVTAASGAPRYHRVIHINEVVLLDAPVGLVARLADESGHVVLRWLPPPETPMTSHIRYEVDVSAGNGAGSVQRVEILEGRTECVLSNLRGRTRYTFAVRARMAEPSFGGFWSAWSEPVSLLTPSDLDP
The test can be described thus: flow cytometry on yeast displaying the scFv, EposR titrated at 37° C., detected with MAB307 and anti-mouse PE.

Test [2] deals with T2, Recombinant-expressed EpoR extracellular domain (UniProt P19235).
T2 sequence (looked up): T1 sequence (looked up)
The test can be described thus: Western blot (FIG. 15 legend). In general terms: A western blot detects proteins with antibodies after separation by electrophoresis.

Test [3] addresses T2, Recombinant-expressed EpoR extracellular domain. The test can be described thus: Western blot after native gel, Ab12.6 at 10 µg/ml.

Results are given in words; binding and its absence hold for the method and conditions named. Some entries that bind do so weakly or less than the wild type.

B1: Ab12 scFv construct with linker 41 in the tether position and the Gly/Ser linker (WT) in the scFv linker position, displayed on yeast (scFv)
scFv: GENKVEYAPALMALSQVQLQESGPGLVKPSETLSLTCTVSGASISSYYWSWIRQPPGKGLEWIGYIYYSGSTNYNPSLKSRVTISVDTSKNQFSLKLRSVTAADTAVYYCARERLGIGDYWGQGTLVTVSSGGGGSGGGGSGGGGSDIQLTQSPSSLSASVGDRVTITCRASQGIRNDLGWYQQKPGKAPKRLIYAASSLQSGVPSRFSGSGSGTEFTLTISSLQPEDFATYYCLQHNTYPPTFGQGTKVEIK
As to B1, the binding result in test [1] is given as “binds”.

B2: Ab12.6 (antibody, V domains shown)
VH: QVQLQESGPGLVKPSETLSLTCTVSGASISSYYWSWIRQPPGKGLEWIGYIGGEGSTNYNPSLKSRVTISVDTSKNQFSLKLRSVTAADTAVYYCARERLGIGDYWGQGTLVTVSS
VL: DIQLTQSPSSLSASVGDRVTITCRASQGIRNDLGWYQQKPGKAPKRLIYAASSLQSGVPSRFSGSGSGTEFTLTISSLQPEDFATYYCLQHNTYPPTFGQGTKVEIK
notes: CDRH2 Y Y S is changed to G G E against Ab12; also called H2-1-3 R2 #6
Take B2: the binding result in test [2] and in test [3] was “binds” each time.

B3: Ab12 scFv construct with Gly/Ser linker (WT) in both the tether and scFv linker positions, displayed on yeast (scFv)
scFv: GGGGSGGGGSGGGGSQVQLQESGPGLVKPSETLSLTCTVSGASISSYYWSWIRQPPGKGLEWIGYIYYSGSTNYNPSLKSRVTISVDTSKNQFSLKLRSVTAADTAVYYCARERLGIGDYWGQGTLVTVSSGGGGSGGGGSGGGGSDIQLTQSPSSLSASVGDRVTITCRASQGIRNDLGWYQQKPGKAPKRLIYAASSLQSGVPSRFSGSGSGTEFTLTISSLQPEDFATYYCLQHNTYPPTFGQGTKVEIK
In the case of B3, in test [1], the binding result is given as “binds”.

B4: Ab12 scFv construct with linker 41 in the tether position and linker 34 in the scFv linker position, displayed on yeast (scFv)
scFv: GENKVEYAPALMALSQVQLQESGPGLVKPSETLSLTCTVSGASISSYYWSWIRQPPGKGLEWIGYIYYSGSTNYNPSLKSRVTISVDTSKNQFSLKLRSVTAADTAVYYCARERLGIGDYWGQGTLVTVSSGHEAAAVMQVQYPASDIQLTQSPSSLSASVGDRVTITCRASQGIRNDLGWYQQKPGKAPKRLIYAASSLQSGVPSRFSGSGSGTEFTLTISSLQPEDFATYYCLQHNTYPPTFGQGTKVEIK
As for B4, the binding entry in test [1] is recorded as “binds”.

B5: Ab12 41/40 scFv (linker 41 as tether, linker 40 as scFv linker), displayed on yeast (scFv)
scFv: GENKVEYAPALMALSQVQLQESGPGLVKPSETLSLTCTVSGASISSYYWSWIRQPPGKGLEWIGYIYYSGSTNYNPSLKSRVTISVDTSKNQFSLKLRSVTAADTAVYYCARERLGIGDYWGQGTLVTVSSGPAKELTPLKEAKVSDIQLTQSPSSLSASVGDRVTITCRASQGIRNDLGWYQQKPGKAPKRLIYAASSLQSGVPSRFSGSGSGTEFTLTISSLQPEDFATYYCLQHNTYPPTFGQGTKVEIK
Regarding B5, in test [1], the binding result is “binds”.
